Measured values taken from article doi:10.1101/2023.04.10.536203.
No constants are given. Whether binding was seen depends on the method and setting. In cells and extracts the contact can be indirect. Some entries that bind do so weakly or less than the wild type. For some assays here: Where a sequence is shown, tags or fusion partners need not be part of it. One block for each molecule: values may come before it.

The chains behind the UniProt entries cited, without tags or fusion partners.
UniProt Q9BUI4: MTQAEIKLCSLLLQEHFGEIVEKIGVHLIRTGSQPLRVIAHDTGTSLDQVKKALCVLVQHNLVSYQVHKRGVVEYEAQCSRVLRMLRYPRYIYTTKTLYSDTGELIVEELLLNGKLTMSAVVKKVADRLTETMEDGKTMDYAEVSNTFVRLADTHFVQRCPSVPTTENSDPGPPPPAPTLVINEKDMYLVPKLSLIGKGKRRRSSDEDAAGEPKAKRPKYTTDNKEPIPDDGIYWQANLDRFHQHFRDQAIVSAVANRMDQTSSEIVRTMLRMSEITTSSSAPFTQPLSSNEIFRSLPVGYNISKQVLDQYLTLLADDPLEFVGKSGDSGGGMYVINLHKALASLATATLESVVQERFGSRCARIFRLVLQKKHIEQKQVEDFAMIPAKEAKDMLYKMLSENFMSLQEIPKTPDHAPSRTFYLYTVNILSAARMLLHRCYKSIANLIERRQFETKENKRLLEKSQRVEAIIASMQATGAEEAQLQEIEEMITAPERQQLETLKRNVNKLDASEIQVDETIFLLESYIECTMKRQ
UniProt P0DMV8: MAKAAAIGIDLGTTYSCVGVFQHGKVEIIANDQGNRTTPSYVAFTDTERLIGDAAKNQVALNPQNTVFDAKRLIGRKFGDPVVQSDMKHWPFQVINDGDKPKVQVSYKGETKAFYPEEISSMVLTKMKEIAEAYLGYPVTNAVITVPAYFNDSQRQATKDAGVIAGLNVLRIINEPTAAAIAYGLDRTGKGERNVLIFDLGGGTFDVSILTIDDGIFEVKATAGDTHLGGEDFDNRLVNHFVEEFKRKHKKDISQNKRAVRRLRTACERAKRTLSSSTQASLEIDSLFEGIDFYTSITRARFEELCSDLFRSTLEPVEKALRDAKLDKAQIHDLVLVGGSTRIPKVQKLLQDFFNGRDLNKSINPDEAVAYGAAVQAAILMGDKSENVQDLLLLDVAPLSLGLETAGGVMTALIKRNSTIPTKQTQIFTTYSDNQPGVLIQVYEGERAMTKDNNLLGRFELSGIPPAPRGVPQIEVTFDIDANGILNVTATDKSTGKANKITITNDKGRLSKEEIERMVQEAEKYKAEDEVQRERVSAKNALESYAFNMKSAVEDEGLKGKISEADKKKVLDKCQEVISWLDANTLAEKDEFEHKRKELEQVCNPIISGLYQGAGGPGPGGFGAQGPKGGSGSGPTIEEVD

How the values were obtained:
Test in all cases: co-IP
[1] = molecular target: T1, 3xFLAG-Biotin-Hexahistidine tagged RPP29 (human) (UniProt O95707)
T1 sequence: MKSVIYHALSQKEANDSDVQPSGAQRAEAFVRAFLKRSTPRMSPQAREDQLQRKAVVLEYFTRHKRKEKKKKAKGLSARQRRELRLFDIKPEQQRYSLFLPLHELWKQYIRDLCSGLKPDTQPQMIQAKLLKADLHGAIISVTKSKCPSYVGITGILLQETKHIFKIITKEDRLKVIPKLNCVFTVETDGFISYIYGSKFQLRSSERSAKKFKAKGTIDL

[2] = molecular target: 3xFLAG-Biotin-Hexahistidine tagged POLR3C (human) (UniProt Q9BUI4)
[3] = molecular target: 3xFLAG-Biotin-Hexahistidine tagged HSPA1A (human) (UniProt P0DMV8)

- binding [1]: binds
- binding [2]: binds
Molecule: HSPA1A/B (endogenous Heat-Shock Protein 70) (from UniProt P0DMV8 1-641)

- binding [1]: binds
B1: RPP21 (protein, UniProt Q9H633 1-154)
chain: MAGPVKDREAFQRLNFLYQAAHCVLAQDPENQALARFYCYTERTIAKRLVLRRDPSVKRTLCRGCSSLLVPGLTCTQRQRRCRGQRWTVQTCLTCQRSQRFLNDPGHLLWGDRPEAQLGSQADSKPLQPLPNTAHSISDRLPEEKMQTQGSSNQ

- binding [1]: binds
B2: POP1 (protein, UniProt Q99575 1-1024)
chain: MSNAKERKHAKKMRNQPTNVTLSSGFVADRGVKHHSGGEKPFQAQKQEPHPGTSRQRQTRVNPHSLPDPEVNEQSSSKGMFRKKGGWKAGPEGTSQEIPKYITASTFAQARAAEISAMLKAVTQKSSNSLVFQTLPRHMRRRAMSHNVKRLPRRLQEIAQKEAEKAVHQKKEHSKNKCHKARRCHMNRTLEFNRRQKKNIWLETHIWHAKRFHMVKKWGYCLGERPTVKSHRACYRAMTNRCLLQDLSYYCCLELKGKEEEILKALSGMCNIDTGLTFAAVHCLSGKRQGSLVLYRVNKYPREMLGPVTFIWKSQRTPGDPSESRQLWIWLHPTLKQDILEEIKAACQCVEPIKSAVCIADPLPTPSQEKSQTELPDEKIGKKRKRKDDGENAKPIKKIIGDGTRDPCLPYSWISPTTGIIISDLTMEMNRFRLIGPLSHSILTEAIKAASVHTVGEDTEETPHRWWIETCKKPDSVSLHCRQEAIFELLGGITSPAEIPAGTILGLTVGDPRINLPQKKSKALPNPEKCQDNEKVRQLLLEGVPVECTHSFIWNQDICKSVTENKISDQDLNRMRSELLVPGSQLILGPHESKIPILLIQQPGKVTGEDRLGWGSGWDVLLPKGWGMAFWIPFIYRGVRVGGLKESAVHSQYKRSPNVPGDFPDCPAGMLFAEEQAKNLLEKYKRRPPAKRPNYVKLGTLAPFCCPWEQLTQDWESRVQAYEEPSVASSPNGKESDLRRSEVPCAPMPKKTHQPSDEVGTSIEHPREAEEVMDAGCQESAGPERITDQEASENHVAATGSHLCVLRSRKLLKQLSAWCGPSSEDSRGGRRAPGRGQQGLTREACLSILGHFPRALVWVSLSLLSKGSPEPHTMICVPAKEDFLQLHEDWHYCGPQESKHSDPFRSKILKQKEKKKREKRQKPGRASSDGPAGEEPVAGQEALTLGLWSGPLPRVTLHCSRTLLGFVTQGDFSMAVGCGEALGFVSLTGLLDMLSSQPAAQRGLVLLRPPASLQYRFARIAIEV

- binding [3]: binds
B3: PolR3A (endogenous RNA Pol III component) (protein, UniProt O14802 1-1390)
chain: MVKEQFRETDVAKKISHICFGMKSPEEMRQQAHIQVVSKNLYSQDNQHAPLLYGVLDHRMGTSEKDRPCETCGKNLADCLGHYGYIDLELPCFHVGYFRAVIGILQMICKTCCHIMLSQEEKKQFLDYLKRPGLTYLQKRGLKKKISDKCRKKNICHHCGAFNGTVKKCGLLKIIHEKYKTNKKVVDPIVSNFLQSFETAIEHNKEVEPLLGRAQENLNPLVVLNLFKRIPAEDVPLLLMNPEAGKPSDLILTRLLVPPLCIRPSVVSDLKSGTNEDDLTMKLTEIIFLNDVIKKHRISGAKTQMIMEDWDFLQLQCALYINSELSGIPLNMAPKKWTRGFVQRLKGKQGRFRGNLSGKRVDFSGRTVISPDPNLRIDEVAVPVHVAKILTFPEKVNKANINFLRKLVQNGPEVHPGANFIQQRHTQMKRFLKYGNREKMAQELKYGDIVERHLIDGDVVLFNRQPSLHKLSIMAHLARVKPHRTFRFNECVCTPYNADFDGDEMNLHLPQTEEAKAEALVLMGTKANLVTPRNGEPLIAAIQDFLTGAYLLTLKDTFFDRAKACQIIASILVGKDEKIKVRLPPPTILKPVTLWTGKQIFSVILRPSDDNPVRANLRTKGKQYCGKGEDLCANDSYVTIQNSELMSGSMDKGTLGSGSKNNIFYILLRDWGQNEAADAMSRLARLAPVYLSNRGFSIGIGDVTPGQGLLKAKYELLNAGYKKCDEYIEALNTGKLQQQPGCTAEETLEALILKELSVIRDHAGSACLRELDKSNSPLTMALCGSKGSFINISQMIACVGQQAISGSRVPDGFENRSLPHFEKHSKLPAAKGFVANSFYSGLTPTEFFFHTMAGREGLVDTAVKTAETGYMQRRLVKSLEDLCSQYDLTVRSSTGDIIQFIYGGDGLDPAAMEGKDEPLEFKRVLDNIKAVFPCPSEPALSKNELILTTESIMKKSEFLCCQDSFLQEIKKFIKGVSEKIKKTRDKYGINDNGTTEPRVLYQLDRITPTQVEKFLETCRDKYMRAQMEPGSAVGALCAQSIGEPGTQMTLKTFHFAGVASMNITLGVPRIKEIINASKAISTPIITAQLDKDDDADYARLVKGRIEKTLLGEISEYIEEVFLPDDCFILVKLSLERIRLLRLEVNAETVRYSICTSKLRVKPGDVAVHGEAVVCVTPRENSKSSMYYVLQFLKEDLPKVVVQGIPEVSRAVIHIDEQSGKEKYKLLVEGDNLRAVMATHGVKGTRTTSNNTYEVEKTLGIEAARTTIINEIQYTMVNHGMSIDRRHVMLLSDLMTYKGEVLGITRFGLAKMKESVLMLASFEKTADHLFDAAYFGQKDSVCGVSECIIMGIPMNIGTGLFKLLHKADRDPNPPKRPLIFDTNEFHIPLVT
